Laboratory results: publication PMC4244161
These are yes or no findings as the source states them, for the method shown. In cells and extracts the contact can be indirect. Some entries that bind do so weakly or less than the wild type.

The chains behind the UniProt entries cited, without tags or fusion partners. Residues count along the entry.
UniProt O95793, residues 82-577: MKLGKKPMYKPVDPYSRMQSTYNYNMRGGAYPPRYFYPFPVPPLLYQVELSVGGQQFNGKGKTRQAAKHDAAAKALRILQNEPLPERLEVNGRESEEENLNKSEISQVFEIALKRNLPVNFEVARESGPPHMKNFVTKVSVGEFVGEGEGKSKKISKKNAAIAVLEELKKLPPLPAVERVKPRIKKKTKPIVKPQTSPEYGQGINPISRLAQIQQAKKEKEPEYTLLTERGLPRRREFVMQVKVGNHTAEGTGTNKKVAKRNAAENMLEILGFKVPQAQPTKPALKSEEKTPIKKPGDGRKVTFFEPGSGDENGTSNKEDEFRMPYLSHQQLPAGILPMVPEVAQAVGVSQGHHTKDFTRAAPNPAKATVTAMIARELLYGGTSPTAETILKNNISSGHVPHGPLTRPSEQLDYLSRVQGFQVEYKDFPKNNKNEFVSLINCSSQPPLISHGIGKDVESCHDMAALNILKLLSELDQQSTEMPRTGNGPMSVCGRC
UniProt Q9UKV8: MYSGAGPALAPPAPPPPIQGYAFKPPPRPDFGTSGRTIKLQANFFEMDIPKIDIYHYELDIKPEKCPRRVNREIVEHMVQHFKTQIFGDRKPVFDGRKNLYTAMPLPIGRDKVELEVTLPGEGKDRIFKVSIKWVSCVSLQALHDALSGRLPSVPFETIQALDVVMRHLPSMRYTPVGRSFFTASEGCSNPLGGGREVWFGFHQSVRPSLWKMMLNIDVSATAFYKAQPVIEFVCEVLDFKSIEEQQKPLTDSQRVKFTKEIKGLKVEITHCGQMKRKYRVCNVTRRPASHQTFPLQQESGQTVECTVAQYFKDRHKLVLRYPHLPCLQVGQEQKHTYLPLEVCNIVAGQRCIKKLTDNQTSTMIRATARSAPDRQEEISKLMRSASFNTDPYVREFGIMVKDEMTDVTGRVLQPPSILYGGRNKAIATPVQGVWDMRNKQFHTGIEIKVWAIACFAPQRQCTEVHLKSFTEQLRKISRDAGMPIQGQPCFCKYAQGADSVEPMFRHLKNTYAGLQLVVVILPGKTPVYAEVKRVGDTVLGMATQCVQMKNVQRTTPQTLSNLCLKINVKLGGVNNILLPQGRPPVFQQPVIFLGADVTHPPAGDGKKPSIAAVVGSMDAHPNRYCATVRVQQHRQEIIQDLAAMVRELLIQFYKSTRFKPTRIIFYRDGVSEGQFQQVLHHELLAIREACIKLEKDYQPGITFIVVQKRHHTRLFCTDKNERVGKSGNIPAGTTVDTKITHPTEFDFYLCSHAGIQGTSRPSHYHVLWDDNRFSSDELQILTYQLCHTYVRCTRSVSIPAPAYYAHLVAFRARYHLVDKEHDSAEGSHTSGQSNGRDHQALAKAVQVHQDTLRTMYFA

How the values were obtained:
[1] = target: TAP-tagged human Staufen1 (55 kDa isoform) (human) (UniProt O95793); assay: co-IP; two-step TAP affinity purification from extracts of co-transfected HEK293T cells: IgG-Sepharose, TEV digestion, calmodulin-agarose, EGTA elution; Western blot with anti-HA and anti-hStau1; lysis in TNE, 0.5% NP-40, with RNase inhibitor
[2] = target: TAP-tagged human Staufen1 (55 kDa isoform) (human) (UniProt O95793); assay: co-IP; one-step TAP purification from extracts of transfected HEK293T cells: IgG-Sepharose, eluted by digestion with TEV; Western blot with anti-Ago2 and anti-hStau1

“Ago1-HA-Flag (from UniProt Q9UL18 1-857)” was tested, and the binding [1] was “binds”.
In the case of “Ago2-HA-Flag (from UniProt Q9UKV8 1-859)”, the binding [1] is reported as “binds”.
In the case of “Ago3-HA-Flag (from UniProt Q9H9G7 1-860)”, the binding [1] is reported as “binds”.
In the case of “endogenous Ago2 (from UniProt Q9UKV8 1-859)”, the binding [2] is reported as “binds”.
